Results deposited as PubChem BioAssay AID1259254 (NCATS, 2017)
The deposit covers about 59,000 reagents; below is a part drawn at random. About 1,550 of all reagents (2.6%) count as active. 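G2 share is only a proxy for re-replication; each gene was hit by three separate siRNAs, and active genes were retested.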 Reagents against one gene are numbered here. Not all columns of the deposit are shown. Not given: the amount of reagent.

Test: 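Finding genes that stop cells copying their DNA twice in one cycle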 (primary screen)
Cells: human HCT116 colorectal cancer cells
Reagents: single siRNA against human genes
Duration: 3 days
Measurement: 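Nuclei stained with Hoechst and imaged; cell-cycle phase assigned by DNA content; G2 share scaled per plate, non-targeting siRNA 0%, GMNN siRNA 100%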
Scale: G2 robust z-score: higher = more G2 cells, more excess DNA replication
Hit rule: 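An siRNA counts as active if its G2 robust z-score lies at least 5 MADs above the screen median; here such calls match roughly 38% of GMNN control or more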

G2 robust z-score, by gene and reagent
EIF3F: #1 0.995 inactive; #2 0.0695 inactive; #3 0.0459 inactive
EFNB1: #1 5.13 active; #2 -0.793 inactive; #3 -0.361 inactive
TDRD10: #1 -0.664 inactive; #2 0.625 inactive; #3 3.51 inactive
TCFL5: #1 0.299 inactive; #2 1.95 inactive; #3 3.46 inactive
FGD4: #1 -1.56 inactive; #2 0.229 inactive; #3 0.596 inactive
COG1: #1 1.12 inactive; #2 3.17 inactive; #3 -0.532 inactive
FAM240C: #1 -0.714 inactive; #2 0.654 inactive; #3 -0.184 inactive
CCL22: #1 0.83 inactive; #2 -0.63 inactive; #3 0.989 inactive
CSPG5: #1 0.0684 inactive; #2 0.287 inactive; #3 2.16 inactive
SLC7A1: #1 -0.873 inactive; #2 -0.979 inactive; #3 -1.25 inactive
FAM76B: #1 0.262 inactive; #2 -0.632 inactive; #3 -0.366 inactive
TRIM16: #1 -0.0954 inactive; #2 1.82 inactive; #3 0.0456 inactive
FUS: #1 8.64 active; #2 -0.432 inactive; #3 0.26 inactive
AGFG1: #1 -0.774 inactive; #2 -0.881 inactive; #3 7.92 active
POP7: #1 -1.3 inactive; #2 -0.197 inactive; #3 3.82 inactive
SPATA17: #1 -0.114 inactive; #2 4.47 inactive; #3 0.642 inactive
SENP5: #1 1.58 inactive; #2 -0.0257 inactive; #3 -0.497 inactive
SNAP29: #1 -0.569 inactive; #2 3.21 inactive; #3 2.8 inactive
LY6G5C: #1 -0.738 inactive; #2 0.451 inactive; #3 -0.246 inactive
KCNK1: #1 0.624 inactive; #2 0.219 inactive; #3 0.044 inactive
PRRC2A: #1 1.88 inactive; #2 0.694 inactive; #3 4.43 inactive
TIMM22: #1 -0.623 inactive; #2 0.721 inactive; #3 -0.738 inactive
FOLR2: #1 2 inactive; #2 -0.213 inactive; #3 -0.518 inactive
H4C12: #1 0.89 inactive; #2 -0.438 inactive; #3 1.25 inactive
NYNRIN: #1 -0.683 inactive; #2 -0.393 inactive; #3 -0.558 inactive
DPF2: #1 -1.22 inactive; #2 2.47 inactive; #3 1.68 inactive
PSD: #1 -0.155 inactive; #2 -0.44 inactive; #3 1.52 inactive
TANC1: #1 0.0717 inactive; #2 -0.123 inactive; #3 5.42 active
AP5B1: #1 3.23 inactive; #2 1.18 inactive; #3 1 inactive
